Assay results from publication PMC8497606.
These are yes or no findings as the source states them, for the method shown. Binding seen in cells or lysates may run through a third protein. Some results given as binding are weak or reduced against the parent protein; the word gives no strength. Where a sequence is shown, tags or fusion partners need not be part of it.

Protein sequences, listed by entry. Tags and fused reporters are not part of them.
UniProt P53396: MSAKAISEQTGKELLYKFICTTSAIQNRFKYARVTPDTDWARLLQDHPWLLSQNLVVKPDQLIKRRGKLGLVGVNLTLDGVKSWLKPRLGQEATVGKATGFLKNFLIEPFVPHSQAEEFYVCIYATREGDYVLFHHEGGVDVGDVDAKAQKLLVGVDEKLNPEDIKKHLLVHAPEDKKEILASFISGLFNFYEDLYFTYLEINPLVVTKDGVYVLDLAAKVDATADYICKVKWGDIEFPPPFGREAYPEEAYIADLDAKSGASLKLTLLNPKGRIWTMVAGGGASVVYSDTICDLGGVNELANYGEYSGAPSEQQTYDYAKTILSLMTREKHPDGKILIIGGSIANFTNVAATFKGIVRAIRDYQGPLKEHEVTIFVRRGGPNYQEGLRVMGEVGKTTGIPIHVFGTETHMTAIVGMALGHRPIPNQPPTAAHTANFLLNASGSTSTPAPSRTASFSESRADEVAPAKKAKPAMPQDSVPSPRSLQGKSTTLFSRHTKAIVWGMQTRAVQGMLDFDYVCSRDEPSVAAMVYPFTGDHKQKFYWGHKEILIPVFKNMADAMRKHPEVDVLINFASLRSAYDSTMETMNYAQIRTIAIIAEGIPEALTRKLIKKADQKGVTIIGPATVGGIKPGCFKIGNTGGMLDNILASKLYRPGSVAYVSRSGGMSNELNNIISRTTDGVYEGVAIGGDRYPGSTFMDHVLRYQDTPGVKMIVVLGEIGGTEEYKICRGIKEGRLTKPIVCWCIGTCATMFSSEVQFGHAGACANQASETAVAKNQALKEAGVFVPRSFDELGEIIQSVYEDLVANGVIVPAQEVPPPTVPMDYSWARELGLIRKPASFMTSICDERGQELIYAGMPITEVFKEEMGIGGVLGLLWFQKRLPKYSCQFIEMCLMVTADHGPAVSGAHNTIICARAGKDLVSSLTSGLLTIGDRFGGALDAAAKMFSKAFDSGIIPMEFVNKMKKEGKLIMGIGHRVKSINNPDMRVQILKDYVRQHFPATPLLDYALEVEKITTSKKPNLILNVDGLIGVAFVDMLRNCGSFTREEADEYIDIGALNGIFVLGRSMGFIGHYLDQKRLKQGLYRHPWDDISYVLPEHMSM

Target: T1, Elp3-FLAG (Elongator subunit Elp3) (UniProt Q9H9T3)
T1 sequence: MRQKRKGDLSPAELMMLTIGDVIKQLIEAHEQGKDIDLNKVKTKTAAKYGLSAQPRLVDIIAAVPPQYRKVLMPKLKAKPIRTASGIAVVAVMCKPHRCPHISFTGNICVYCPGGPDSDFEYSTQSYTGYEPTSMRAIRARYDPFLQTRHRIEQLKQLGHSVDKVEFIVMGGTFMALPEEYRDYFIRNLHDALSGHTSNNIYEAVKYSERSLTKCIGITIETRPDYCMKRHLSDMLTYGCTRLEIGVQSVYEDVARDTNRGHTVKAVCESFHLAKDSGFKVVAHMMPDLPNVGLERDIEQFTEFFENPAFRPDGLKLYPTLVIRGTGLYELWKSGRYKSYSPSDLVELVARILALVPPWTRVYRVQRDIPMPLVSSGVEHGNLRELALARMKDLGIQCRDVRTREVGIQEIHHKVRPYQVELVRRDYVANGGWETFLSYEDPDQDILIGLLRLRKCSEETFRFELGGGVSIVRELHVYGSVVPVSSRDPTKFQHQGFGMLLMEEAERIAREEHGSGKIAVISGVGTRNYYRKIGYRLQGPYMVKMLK
Assay: co-IP; HEK293 cells; Pierce Crosslink immunoprecipitation kit; 4 ug of Myc, Flag or general mouse IgG antibody crosslinked with DSS to protein A/G; Western blot detection with Elp3 and Acly antibodies

“Myc-Acly (ATP-citrate lyase) (from UniProt P53396 1-1101)” was tested, and the binding was “binds”.
